According to US20250034269A1:
These are yes or no findings as the source states them, for the method shown. Some entries that bind do so weakly or less than the wild type.

Protein sequences, listed by entry. Tags and fused reporters are not part of them. Lines headed by an entry give the natural chain unless they say otherwise; changes in a name come on top.
UniProt P36941: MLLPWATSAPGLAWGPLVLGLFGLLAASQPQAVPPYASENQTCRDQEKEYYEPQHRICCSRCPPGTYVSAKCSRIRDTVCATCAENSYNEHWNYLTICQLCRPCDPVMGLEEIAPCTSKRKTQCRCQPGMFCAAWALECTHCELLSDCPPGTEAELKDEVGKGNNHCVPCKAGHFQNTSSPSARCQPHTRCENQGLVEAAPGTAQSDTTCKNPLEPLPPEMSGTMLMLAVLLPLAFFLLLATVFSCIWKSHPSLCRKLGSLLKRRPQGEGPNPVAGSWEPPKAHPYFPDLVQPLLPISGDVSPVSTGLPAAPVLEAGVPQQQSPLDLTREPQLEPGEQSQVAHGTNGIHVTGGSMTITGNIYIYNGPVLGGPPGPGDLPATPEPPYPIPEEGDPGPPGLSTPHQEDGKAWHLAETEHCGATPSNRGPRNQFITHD
UniProt P50284: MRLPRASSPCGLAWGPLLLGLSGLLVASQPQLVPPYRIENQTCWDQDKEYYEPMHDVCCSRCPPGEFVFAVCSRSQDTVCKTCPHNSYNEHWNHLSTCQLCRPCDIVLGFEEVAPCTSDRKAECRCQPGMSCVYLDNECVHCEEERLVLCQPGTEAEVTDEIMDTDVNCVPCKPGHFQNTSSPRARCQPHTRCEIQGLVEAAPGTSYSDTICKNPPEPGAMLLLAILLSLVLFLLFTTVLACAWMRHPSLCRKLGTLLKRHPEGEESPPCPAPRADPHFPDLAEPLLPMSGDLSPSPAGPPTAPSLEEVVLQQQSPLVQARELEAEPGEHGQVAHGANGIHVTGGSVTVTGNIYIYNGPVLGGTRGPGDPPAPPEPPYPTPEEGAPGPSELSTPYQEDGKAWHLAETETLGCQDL

B1: P1AE9457 (antibody, human IgG1, kappa, L234A L235A, V domains shown)
VH: EVQLLESGGGLVQPGGSLRLSCAASGFTFSNYAMTWVRQAPGKGLEWVSEISGSGGSTYYADSVKGRFTISRDNSKNTLYLQMNSLRAEDTAVYYCAKDDDGAYGDTMDVWGQGTTVTVSS
VL: DIQMTQSPSSLSASIGDRVTITCRASQDISNYLNWYQQKPGKAPKLLIYAASALQSGVPSRFSGSGSGTDFTLTISSLQPEDFATYYCQHYKSYPYTFGQGTKVEIRR
B2: P1AE9450 (antibody, human IgG1, kappa, L234A L235A, V domains shown)
VH: EVQLLESGGGLVQPGGSLRLSCAASGFTVSSYVMKWFRQAPGKGLEWVSSISGSGGRPFYADSVKGRFTISRDNSKNALYLQMNSLRAEDTAVYYCANDMDVWGQGTTVTVSS
VL: DIQMTQSPSSLSASVGDRVTITCRASQDISSFLKWYQQKPGKAPTLLIYAASALQSGVPSRFSGSGSGTDFTLTISSLQPEDFATYYCQQYNTYPLTFGGGTKVDIKR
B3: P1AE9452 (antibody, human IgG1, kappa, L234A L235A, V domains shown)
VH: EVQLLESGGGLVQPGGSLRLSCAAAGFTFSSYPMTWVRQAPGKGLEWVSLISPSGATTYYADSVKGRFTISRDTSKNTLYLQMNSLRAEDTAVYYCAKNHYPDDVIIKNYYFYGVDVWGQGTTVTVSS
VL: DIQMTQSPSSLSASVGDRVTITCRASQDISNYLNWYQQKPGKAPKSLIYAASSLQSGVPSRFSGSGSGTDFTLTISSLQPEDFANYYCQQTHTIPYSFGQGTNLEIKR
B4: P1AE9459 (antibody, human IgG1, kappa, L234A L235A, V domains shown)
VH: EVQLVESGGGLVQPGGSLRLSCAASGFTFSSYTMNWVRQAPGKGLEWVSGVAPSGDRTYYTDSVKGRFTISRDNAKNTLDLQMTSLRAEDAAIYICAQGFAFTNWGQGTMVTVSS
VL: DIQMTQSPSSLSASVGDRVTITCRASQGISSALAWFQQKPGKAPKRLIFDASSLDSGVPSRFSGSGSGTDFTLTISSLQPEDFATYYCQQYNNYPLTFGGGTKVEMKR
B5: P1AF0079 (antibody, human IgG1, kappa, L234A L235A, V domains shown)
VH: EVQLLESGGALVQPGGSLRLSCAASGFTFSSYAMSWVRQAPGKGLEWVSVITGSSSSIDYADSVKGRFTISRDNSKNTLYLQMNSLRAEDTAVYYCAKGGSGVWSISTDFDYWGQGTLVTVSS
VL: DIQMTQSPSFLSASVGDRVTITCQASQDISNYLNWYQQKPGKAPKHLIYAASSLHSGVPSRFSGSGSGAYFTLTITSLQPEDFATYYCQQSHSTPPTFGPGTKVDIKR
B6: P1AE1873 (CBE11) (antibody, human IgG1, kappa, L234A L235A, V domains shown)
VH: EVQLVESGGGLVKPGGSLRLSCAASGFTFSDYYMYWFRQAPGKGLEWVATISDGGSYTYYPDSVKGRFTISRDNAKNSLYLQMSSLRAEDTAVYYCAREENGNFYYFDYWGQGTTVTVSS
VL: DIQMTQSPSSLSASVGDRVTITCKAGQDIKSYLSWYQQKPGKAPKLLIYYATRLADGVPSRFSGSGSGTDYTLTISSLQPEDFATYYCLQHGESPWTFGGGTKLEIKR
B7: P1AF0080 (antibody, human IgG1, kappa, L234A L235A, V domains shown)
VH: EVQLLESGGGLVQPGGSLRLSCAASGFTFSYYAMTWVRQAPGKGLEWIGVINSGGGTYYTDSVKGRFTMSRDNSKNTLYLQVNSLRAEDTAVYYCAKASTADVWGQGTTVTVSS
VL: DIQMTQSPSSLSASVGDRVTITCQASQGISNYLSWYQQKPGKAPKRLIFAASSLESGVPSRFSGSGSGTDFTLTISSLQPEDFATYYCQQYNSYSLTFGGGTKLEIKR
B8: P1AF0064 (antibody, human IgG1, kappa, L234A L235A, V domains shown)
VH: EVQLQQYGAELGKPGTSVKLSCKVSGYNIGNTYIHWVIQRPGKGLEWIGRIDPTNGNTICTEKFKNKATLTADLSSNTAYMQLSQLKSDDTAIYFCAPTTLTTPDSFAYWGQGTLVTVSS
VL: DIQMTQSPSQLSASVGDRVTLSCKASQNIYKYLNWYQQKLGEAPRLLIYSTNILQTGIPSRFSGSGSGTDYTLTISSLQPEDAATYFCQKYYSGFTFGSGTKLEMKR

molecular target: dimeric human LTBR-Fc biotinylated (P1AE2401) (human) (UniProt P36941); assay: direct ELISA

Binder | binding
B1 | binds
B2 | binds
B3 | binds
B4 | binds
B5 | binds
B6 | binds
B7 | binds
B8 | binds

molecular target: dimeric murine LTBR-Fc disulfide-linked homodimer biotinylated (P1AE2655) (mouse; human) (UniProt P50284); assay: direct ELISA

Binder | binding
B4 | binds
B7 | binds
B8 | binds

molecular target: dimeric human LTBR-Fc biotinylated (P1AE2401) (human) (UniProt P36941); assay: ligand-competition ELISA: biotinylated dimeric human LTBR-Fc (P1AE2401) on streptavidin plate, antibody titrated 1:3 from 100 nM, then human lymphotoxin α1β2 (P1AE1235; sheet: huLTa1b1) at 250 ng/ml, bound ligand detected with anti-His6-POD

Binder | binding
B1 | binds
B2 | binds

molecular target: dimeric human LTBR-Fc biotinylated (P1AE2401) (human) (UniProt P36941); assay: ligand-competition ELISA: biotinylated dimeric human LTBR-Fc (P1AE2401, 500 ng/ml) on streptavidin plate, antibody titrated 1:3 from 100 nM, then His6-tagged human LIGHT at 1000 ng/ml, bound ligand detected with anti-His6-POD

Binder | binding
B2 | binds
B3 | binds
B4 | binds
